# Measurements reported in the supplement of paper PMC10849652.
# Protein sequences, listed by entry. Tags and fused reporters are not part of them. Lines headed by an entry give the natural chain unless they say otherwise; changes in a name come on top.
# UniProt Q3ZCW2: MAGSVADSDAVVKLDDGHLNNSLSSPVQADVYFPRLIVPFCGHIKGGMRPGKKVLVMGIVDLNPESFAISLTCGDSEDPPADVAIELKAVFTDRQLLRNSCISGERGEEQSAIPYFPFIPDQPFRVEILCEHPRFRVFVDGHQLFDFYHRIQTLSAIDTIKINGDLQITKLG
# UniProt P61968: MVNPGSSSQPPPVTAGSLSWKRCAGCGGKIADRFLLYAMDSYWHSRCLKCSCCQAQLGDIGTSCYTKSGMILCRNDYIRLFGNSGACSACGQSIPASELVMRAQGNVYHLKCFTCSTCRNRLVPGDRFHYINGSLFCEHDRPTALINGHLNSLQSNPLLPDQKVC
# UniProt O95214: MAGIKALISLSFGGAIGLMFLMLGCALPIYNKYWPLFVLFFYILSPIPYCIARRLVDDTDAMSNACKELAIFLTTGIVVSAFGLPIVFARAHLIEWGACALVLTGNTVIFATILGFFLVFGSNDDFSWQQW
# UniProt P49916: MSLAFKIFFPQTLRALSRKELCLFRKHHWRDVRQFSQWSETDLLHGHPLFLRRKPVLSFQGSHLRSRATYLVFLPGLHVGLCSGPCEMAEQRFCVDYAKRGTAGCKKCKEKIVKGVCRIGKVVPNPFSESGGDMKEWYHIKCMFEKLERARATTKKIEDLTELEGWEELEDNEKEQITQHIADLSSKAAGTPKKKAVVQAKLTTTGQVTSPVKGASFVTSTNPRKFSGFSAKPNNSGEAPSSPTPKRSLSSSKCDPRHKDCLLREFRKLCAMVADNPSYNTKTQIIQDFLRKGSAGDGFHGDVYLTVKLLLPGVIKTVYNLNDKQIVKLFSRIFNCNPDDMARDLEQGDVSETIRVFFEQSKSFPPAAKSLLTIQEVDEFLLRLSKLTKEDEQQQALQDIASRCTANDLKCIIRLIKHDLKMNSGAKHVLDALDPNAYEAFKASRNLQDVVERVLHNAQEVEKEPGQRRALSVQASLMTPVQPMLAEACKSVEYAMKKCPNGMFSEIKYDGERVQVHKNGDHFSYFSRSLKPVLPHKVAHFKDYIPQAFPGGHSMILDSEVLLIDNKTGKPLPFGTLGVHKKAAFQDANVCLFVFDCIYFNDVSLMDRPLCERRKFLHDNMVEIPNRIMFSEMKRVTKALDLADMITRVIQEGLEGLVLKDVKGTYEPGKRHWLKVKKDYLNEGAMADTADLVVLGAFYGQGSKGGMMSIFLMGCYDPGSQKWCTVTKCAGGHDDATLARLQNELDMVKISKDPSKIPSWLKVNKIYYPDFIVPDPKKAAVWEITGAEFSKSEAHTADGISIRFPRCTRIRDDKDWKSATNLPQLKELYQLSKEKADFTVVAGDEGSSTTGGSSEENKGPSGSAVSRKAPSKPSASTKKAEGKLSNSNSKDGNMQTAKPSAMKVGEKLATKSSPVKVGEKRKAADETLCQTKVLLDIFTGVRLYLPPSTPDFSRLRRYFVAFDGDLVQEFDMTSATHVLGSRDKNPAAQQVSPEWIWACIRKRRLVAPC
# UniProt P17931, whole entry, looked up: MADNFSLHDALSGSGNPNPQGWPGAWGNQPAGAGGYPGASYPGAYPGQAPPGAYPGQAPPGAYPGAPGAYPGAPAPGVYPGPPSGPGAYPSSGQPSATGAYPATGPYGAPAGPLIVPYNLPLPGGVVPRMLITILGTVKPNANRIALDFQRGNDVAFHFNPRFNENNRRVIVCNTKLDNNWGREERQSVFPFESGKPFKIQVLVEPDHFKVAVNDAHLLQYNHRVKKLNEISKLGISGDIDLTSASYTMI
# UniProt O15230: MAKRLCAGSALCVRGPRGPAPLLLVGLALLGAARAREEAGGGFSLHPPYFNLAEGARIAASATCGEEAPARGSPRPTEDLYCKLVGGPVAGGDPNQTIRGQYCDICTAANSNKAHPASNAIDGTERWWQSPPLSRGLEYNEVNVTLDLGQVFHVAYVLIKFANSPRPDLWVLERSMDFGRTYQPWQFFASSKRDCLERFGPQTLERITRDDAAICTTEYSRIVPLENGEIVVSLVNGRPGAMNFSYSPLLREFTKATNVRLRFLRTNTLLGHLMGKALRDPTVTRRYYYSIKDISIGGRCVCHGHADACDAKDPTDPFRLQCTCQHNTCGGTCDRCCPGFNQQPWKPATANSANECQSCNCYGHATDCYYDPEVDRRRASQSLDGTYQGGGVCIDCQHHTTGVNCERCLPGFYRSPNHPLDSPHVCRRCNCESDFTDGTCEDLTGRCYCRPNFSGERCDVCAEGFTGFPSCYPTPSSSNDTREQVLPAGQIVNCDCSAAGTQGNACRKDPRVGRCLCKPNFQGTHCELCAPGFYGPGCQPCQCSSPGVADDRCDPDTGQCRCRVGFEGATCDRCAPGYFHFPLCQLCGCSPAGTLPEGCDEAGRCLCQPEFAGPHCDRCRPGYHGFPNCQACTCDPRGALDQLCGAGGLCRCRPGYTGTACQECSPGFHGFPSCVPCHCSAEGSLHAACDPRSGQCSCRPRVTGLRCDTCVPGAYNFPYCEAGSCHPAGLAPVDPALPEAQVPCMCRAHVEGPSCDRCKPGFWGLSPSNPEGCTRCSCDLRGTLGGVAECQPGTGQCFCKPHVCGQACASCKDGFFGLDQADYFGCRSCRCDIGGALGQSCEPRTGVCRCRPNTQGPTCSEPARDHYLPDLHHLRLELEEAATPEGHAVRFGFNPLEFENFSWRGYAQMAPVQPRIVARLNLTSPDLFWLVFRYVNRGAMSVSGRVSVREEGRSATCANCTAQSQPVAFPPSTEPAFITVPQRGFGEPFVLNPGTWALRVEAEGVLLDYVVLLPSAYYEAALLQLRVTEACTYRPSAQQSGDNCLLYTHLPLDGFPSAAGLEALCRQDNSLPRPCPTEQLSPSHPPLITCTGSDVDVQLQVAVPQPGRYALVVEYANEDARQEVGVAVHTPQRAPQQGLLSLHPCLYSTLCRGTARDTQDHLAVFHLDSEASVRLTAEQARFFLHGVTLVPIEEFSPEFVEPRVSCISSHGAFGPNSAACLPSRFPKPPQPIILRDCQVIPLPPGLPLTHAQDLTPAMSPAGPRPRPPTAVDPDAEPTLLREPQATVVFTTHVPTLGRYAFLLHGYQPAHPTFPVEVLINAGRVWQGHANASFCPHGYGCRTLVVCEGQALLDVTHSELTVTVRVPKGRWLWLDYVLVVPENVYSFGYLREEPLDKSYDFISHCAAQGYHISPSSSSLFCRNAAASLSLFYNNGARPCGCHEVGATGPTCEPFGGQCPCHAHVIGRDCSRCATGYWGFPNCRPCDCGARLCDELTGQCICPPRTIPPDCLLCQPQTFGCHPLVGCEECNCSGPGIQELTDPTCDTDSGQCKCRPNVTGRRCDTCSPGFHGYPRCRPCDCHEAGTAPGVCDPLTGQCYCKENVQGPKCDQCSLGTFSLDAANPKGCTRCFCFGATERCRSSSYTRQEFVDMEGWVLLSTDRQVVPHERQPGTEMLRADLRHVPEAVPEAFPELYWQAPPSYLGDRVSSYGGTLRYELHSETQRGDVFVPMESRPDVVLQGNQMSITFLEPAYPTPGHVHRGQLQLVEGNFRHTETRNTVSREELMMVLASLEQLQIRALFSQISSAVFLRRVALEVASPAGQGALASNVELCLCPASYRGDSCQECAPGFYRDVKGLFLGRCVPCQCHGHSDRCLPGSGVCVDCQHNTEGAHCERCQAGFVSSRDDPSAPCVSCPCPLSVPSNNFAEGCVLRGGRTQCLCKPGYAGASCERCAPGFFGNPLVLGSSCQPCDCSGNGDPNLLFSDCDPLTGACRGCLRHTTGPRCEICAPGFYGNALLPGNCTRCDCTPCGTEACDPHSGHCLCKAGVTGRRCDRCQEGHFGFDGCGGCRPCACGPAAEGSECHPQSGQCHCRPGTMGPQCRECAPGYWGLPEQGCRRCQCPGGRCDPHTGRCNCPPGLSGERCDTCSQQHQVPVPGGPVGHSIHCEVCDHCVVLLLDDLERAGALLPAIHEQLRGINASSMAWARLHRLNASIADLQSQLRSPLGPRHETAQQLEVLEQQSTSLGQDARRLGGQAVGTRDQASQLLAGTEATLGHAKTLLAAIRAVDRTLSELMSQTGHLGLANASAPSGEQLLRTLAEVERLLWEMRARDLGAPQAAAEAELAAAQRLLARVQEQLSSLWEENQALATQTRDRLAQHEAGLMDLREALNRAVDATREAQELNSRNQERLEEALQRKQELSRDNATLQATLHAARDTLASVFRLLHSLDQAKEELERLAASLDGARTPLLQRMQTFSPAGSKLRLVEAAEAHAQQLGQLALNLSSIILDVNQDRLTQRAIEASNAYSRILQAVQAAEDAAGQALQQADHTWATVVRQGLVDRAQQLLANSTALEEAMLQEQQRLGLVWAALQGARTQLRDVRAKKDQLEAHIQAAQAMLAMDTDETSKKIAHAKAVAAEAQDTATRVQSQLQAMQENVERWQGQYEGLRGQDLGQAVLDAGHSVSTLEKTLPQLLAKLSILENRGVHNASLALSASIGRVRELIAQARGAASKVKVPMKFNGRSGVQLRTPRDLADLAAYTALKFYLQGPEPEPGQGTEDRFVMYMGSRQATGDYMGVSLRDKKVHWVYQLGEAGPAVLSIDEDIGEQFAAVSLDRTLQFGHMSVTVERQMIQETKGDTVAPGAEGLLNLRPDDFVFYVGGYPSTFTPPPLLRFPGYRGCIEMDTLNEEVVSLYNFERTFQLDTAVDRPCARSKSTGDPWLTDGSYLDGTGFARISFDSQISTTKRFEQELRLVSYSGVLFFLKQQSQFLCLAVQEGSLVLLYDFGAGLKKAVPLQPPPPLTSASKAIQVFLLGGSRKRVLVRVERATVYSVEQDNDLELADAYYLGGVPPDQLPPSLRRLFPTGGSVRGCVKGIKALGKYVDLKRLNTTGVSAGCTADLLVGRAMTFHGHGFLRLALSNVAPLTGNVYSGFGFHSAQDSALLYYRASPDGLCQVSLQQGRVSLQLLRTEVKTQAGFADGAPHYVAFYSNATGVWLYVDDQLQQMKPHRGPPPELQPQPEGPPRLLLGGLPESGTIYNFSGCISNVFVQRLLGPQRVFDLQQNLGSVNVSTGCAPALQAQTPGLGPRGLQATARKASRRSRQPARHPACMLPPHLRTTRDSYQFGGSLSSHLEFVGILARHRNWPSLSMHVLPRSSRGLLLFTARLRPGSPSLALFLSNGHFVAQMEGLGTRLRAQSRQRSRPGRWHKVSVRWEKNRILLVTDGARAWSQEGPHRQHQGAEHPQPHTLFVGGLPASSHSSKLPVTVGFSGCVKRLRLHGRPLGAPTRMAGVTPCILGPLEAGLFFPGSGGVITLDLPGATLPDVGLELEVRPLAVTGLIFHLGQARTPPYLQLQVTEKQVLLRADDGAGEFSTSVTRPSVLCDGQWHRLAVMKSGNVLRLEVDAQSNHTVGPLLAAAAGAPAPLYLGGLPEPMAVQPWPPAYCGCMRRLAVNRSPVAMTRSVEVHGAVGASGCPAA
# UniProt Q9Y546: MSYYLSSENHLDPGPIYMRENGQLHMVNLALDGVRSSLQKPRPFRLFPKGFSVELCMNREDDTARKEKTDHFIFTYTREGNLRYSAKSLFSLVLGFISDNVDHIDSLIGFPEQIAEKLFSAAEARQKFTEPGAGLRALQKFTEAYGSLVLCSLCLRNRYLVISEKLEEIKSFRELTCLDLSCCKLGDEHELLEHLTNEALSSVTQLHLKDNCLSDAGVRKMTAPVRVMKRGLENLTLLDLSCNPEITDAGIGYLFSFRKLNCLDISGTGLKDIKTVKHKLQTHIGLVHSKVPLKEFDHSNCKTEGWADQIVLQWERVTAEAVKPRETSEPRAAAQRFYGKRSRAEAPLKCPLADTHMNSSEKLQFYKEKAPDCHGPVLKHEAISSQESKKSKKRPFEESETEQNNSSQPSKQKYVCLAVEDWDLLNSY
# UniProt P13473: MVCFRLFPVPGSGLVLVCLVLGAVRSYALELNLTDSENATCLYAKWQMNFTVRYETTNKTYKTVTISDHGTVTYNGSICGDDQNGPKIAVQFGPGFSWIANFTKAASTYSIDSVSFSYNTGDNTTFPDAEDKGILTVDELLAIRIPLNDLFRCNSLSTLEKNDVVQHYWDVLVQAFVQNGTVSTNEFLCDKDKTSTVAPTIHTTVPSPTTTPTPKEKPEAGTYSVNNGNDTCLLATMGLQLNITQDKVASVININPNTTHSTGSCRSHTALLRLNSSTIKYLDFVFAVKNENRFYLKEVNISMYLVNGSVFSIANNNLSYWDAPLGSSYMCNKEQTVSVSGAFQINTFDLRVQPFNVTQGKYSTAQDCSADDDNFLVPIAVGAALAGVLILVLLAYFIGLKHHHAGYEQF
# UniProt Q13571: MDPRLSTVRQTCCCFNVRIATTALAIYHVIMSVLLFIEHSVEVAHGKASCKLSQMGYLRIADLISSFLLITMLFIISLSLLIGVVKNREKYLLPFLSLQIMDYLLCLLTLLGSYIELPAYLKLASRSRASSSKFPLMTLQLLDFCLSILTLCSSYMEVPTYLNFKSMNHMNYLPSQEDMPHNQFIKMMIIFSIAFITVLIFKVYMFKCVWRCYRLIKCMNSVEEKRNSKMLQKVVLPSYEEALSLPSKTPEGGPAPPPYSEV
# This is one part of the list.
# Compound: C[C@H](Nc1ncnc2nc[nH]c12)c1cc2cccc(Cl)c2c(=O)n1-c1ccccc1 [duvelisib]
# Assay: log2 fold change, soluble protein after heating vs DMSO (PISA); higher = thermal stabilisation; K562 cells, 10 uM, 30 min; active = over 0.2 and 3.5 SD of the protein, either way, in both replicates (recomputed)
# Outline: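 Quantification of soluble protein used TMTpro 16plex LC-MS/MS, with channel sums equalised. Samples were the supernatant after 21,000xg for 90 min of pooled aliquots from K562 cells (2×10^6 cells/mL) treated with 10 μM compound for 30 min, heated for 3 min over 48°C-58°C, and extracted in PBS with 0.5% NP-40 at 4°C. Values, from duplicates, describe thermal stability against control samples on a log2 fold-change scale.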
row,Target,log2 fold change
1,LGALSL (UniProt Q3ZCW2),inactive: -0.289
2,LRP5 (UniProt O75197),inactive: -0.054
3,LMO4 (UniProt P61968),inactive: 0.038
4,LIG4 (UniProt P49917),inactive: 0.098
5,LRP1 (UniProt Q07954),inactive: -0.054
6,LRRC14 (UniProt Q15048),inactive: 0.041
7,LEPROTL1 isoform 2 (UniProt O95214),inactive: -0.071
8,LIG3 (UniProt P49916),inactive: -0.178
9,LEG1 (UniProt Q6P5S2),inactive: 0.079
10,L1TD1 (UniProt Q5T7N2),inactive: 0.183
11,LAMC1 (UniProt P11047),inactive: -0.135
12,LGALS3 (UniProt P17931),inactive: 0.067
13,LMLN isoform 3 (UniProt Q96KR4),inactive: -0.056
14,LAMA5 (UniProt O15230),inactive: 0.045
15,LAMB2 (UniProt P55268),inactive: -0.069
16,LRRC42 (UniProt Q9Y546),inactive: 0.351
17,LAMP2 isoform 2 (UniProt P13473),active: 0.344
18,LAPTM5 (UniProt Q13571),inactive: 0.173

# Pulled one by one from above (2):
row,Target,log2 fold change
4,LIG4 (UniProt P49917),inactive: 0.098
14,LAMA5 (UniProt O15230),inactive: 0.045
